# Data taken from the supplement of paper PMC10849652.
# Protein sequences, listed by entry. Tags and fused reporters are not part of them. Lines headed by an entry give the natural chain unless they say otherwise; changes in a name come on top.
# UniProt Q9UN81: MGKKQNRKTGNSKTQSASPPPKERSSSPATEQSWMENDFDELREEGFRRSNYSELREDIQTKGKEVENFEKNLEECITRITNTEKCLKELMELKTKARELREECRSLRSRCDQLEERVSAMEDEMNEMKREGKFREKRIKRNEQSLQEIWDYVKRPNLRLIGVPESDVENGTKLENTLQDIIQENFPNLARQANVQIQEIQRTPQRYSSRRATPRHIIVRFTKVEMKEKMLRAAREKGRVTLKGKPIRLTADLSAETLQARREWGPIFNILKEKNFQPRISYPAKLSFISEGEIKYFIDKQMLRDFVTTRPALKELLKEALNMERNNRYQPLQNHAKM
# UniProt O00629, whole entry, looked up: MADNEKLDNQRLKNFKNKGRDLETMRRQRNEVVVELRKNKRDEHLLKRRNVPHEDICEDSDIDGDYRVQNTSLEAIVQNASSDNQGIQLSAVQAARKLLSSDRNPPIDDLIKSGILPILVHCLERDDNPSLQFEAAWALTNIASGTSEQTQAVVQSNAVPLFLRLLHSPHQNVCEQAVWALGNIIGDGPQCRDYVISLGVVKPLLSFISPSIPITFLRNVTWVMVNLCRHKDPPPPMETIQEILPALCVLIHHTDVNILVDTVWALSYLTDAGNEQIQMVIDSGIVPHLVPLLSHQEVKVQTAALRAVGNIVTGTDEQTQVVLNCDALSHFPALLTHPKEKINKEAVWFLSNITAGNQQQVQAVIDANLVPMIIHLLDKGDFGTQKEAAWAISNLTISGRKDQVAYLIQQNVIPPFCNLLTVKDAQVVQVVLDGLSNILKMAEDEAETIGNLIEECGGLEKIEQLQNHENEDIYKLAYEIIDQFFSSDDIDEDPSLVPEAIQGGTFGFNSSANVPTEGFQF
# UniProt O75037: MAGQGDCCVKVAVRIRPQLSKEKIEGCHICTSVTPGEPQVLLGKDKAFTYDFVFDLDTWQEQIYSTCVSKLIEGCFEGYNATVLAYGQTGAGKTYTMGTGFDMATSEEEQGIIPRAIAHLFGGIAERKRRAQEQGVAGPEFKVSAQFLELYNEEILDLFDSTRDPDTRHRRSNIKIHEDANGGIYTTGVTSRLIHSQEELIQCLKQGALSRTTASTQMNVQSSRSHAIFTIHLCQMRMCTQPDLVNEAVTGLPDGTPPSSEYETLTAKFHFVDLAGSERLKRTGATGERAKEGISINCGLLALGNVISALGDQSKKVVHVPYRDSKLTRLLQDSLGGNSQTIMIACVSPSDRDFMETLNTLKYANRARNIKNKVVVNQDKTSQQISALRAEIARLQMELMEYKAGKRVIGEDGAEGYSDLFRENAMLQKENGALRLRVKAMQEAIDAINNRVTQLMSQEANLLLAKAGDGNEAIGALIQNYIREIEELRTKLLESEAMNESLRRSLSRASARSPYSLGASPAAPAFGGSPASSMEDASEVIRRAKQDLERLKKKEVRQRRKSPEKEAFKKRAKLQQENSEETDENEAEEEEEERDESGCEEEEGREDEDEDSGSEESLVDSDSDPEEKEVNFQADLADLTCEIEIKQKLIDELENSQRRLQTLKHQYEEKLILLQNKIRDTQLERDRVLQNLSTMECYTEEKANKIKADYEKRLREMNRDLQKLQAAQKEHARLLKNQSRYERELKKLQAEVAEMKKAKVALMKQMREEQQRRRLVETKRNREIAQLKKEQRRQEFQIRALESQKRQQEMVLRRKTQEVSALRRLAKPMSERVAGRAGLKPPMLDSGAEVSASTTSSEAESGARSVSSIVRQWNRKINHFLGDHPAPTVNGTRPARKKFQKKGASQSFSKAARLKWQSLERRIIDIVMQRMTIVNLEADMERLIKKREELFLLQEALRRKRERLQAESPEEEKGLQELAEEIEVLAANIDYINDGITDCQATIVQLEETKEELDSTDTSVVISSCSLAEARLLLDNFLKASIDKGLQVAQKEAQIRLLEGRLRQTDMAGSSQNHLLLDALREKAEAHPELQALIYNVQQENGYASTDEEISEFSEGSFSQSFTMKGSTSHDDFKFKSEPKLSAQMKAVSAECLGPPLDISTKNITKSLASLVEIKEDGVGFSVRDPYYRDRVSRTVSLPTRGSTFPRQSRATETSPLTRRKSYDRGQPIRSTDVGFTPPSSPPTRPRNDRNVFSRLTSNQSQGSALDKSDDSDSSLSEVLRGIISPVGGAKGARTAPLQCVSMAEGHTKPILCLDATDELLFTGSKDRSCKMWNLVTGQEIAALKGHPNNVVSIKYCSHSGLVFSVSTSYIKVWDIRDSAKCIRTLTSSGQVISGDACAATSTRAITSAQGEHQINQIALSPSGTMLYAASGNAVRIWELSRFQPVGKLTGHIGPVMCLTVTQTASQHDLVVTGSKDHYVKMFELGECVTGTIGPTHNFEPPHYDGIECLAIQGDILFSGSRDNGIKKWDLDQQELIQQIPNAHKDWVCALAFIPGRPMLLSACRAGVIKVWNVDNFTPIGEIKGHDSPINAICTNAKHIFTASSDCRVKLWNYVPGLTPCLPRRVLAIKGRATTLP
# UniProt Q9ULH0: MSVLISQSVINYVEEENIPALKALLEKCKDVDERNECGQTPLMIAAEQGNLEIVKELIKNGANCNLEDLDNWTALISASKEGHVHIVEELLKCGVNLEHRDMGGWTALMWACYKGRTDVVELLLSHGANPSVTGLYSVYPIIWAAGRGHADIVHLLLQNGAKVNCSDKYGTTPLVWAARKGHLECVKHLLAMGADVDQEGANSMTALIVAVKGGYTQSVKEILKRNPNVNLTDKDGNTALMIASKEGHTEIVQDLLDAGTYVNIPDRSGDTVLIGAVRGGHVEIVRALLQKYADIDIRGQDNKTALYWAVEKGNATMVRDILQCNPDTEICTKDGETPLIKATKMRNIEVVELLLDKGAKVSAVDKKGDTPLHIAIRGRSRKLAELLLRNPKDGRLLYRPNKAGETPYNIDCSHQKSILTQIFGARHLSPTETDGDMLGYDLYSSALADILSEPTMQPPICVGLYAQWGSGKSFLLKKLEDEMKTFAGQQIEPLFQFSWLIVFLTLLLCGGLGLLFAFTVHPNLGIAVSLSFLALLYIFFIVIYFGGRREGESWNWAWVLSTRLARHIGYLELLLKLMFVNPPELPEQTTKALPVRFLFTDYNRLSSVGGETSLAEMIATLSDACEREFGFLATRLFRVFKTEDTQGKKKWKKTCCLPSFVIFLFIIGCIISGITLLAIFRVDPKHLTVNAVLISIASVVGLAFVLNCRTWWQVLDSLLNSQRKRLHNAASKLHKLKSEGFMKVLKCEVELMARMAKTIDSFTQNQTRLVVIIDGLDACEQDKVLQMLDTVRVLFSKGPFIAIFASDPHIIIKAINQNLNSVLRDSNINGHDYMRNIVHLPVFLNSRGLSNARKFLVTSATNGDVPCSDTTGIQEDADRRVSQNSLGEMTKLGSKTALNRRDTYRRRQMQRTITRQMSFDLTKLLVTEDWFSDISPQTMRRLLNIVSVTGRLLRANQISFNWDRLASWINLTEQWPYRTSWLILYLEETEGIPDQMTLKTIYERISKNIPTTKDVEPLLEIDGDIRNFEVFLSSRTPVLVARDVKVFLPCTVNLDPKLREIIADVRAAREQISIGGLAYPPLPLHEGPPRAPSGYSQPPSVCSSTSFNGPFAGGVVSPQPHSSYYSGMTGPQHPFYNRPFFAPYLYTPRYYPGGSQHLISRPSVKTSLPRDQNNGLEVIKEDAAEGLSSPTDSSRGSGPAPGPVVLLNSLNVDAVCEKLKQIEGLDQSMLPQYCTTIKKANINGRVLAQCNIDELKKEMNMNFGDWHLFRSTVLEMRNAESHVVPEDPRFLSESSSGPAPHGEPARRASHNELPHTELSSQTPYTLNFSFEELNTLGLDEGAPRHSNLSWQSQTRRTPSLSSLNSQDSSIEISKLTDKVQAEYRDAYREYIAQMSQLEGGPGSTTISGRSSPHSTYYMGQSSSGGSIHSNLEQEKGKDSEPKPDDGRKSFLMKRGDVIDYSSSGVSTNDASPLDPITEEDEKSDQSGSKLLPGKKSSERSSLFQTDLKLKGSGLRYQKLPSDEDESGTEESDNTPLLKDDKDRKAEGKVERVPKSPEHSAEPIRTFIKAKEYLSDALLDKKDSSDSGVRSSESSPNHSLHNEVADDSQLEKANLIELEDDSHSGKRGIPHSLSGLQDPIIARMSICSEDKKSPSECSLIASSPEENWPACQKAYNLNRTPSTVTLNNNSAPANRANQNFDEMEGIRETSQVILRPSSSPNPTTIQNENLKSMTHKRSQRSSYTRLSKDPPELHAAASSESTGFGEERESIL
# UniProt Q07666, whole entry, looked up: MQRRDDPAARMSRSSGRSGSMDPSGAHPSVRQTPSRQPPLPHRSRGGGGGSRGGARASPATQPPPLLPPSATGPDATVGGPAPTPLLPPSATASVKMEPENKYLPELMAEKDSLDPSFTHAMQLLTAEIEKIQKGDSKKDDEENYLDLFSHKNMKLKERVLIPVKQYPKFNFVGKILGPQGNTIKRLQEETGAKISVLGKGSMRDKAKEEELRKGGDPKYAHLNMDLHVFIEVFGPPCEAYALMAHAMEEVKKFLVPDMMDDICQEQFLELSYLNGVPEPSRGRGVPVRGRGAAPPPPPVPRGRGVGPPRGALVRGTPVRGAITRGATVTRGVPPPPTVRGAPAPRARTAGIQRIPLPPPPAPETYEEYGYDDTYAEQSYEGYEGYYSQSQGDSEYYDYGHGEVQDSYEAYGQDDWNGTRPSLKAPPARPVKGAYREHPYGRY
# UniProt A5PL33: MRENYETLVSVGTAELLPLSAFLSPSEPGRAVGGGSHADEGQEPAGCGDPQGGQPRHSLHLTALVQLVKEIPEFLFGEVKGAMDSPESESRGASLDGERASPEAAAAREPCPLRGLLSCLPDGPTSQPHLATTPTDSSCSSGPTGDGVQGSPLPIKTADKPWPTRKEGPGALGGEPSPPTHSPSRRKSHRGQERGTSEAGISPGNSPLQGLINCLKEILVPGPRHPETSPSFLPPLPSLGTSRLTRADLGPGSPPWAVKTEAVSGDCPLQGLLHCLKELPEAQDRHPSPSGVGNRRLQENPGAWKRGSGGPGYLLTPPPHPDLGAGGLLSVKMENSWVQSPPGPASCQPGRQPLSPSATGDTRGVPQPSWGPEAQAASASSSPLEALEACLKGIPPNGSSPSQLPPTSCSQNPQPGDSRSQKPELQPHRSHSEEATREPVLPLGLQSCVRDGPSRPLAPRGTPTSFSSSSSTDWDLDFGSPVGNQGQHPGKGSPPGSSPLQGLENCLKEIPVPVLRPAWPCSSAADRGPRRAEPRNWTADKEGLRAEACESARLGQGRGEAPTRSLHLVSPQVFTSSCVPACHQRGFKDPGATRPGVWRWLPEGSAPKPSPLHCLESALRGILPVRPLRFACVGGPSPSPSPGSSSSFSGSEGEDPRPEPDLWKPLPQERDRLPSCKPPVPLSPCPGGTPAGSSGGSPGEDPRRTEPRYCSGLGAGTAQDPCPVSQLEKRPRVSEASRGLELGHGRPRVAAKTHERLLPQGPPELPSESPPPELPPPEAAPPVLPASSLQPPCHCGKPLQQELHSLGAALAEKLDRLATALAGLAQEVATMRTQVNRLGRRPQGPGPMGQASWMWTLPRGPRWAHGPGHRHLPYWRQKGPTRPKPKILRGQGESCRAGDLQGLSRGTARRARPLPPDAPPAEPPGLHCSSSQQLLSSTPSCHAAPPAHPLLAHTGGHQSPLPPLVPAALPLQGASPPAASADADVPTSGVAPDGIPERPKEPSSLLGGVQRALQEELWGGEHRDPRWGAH
# UniProt O15066: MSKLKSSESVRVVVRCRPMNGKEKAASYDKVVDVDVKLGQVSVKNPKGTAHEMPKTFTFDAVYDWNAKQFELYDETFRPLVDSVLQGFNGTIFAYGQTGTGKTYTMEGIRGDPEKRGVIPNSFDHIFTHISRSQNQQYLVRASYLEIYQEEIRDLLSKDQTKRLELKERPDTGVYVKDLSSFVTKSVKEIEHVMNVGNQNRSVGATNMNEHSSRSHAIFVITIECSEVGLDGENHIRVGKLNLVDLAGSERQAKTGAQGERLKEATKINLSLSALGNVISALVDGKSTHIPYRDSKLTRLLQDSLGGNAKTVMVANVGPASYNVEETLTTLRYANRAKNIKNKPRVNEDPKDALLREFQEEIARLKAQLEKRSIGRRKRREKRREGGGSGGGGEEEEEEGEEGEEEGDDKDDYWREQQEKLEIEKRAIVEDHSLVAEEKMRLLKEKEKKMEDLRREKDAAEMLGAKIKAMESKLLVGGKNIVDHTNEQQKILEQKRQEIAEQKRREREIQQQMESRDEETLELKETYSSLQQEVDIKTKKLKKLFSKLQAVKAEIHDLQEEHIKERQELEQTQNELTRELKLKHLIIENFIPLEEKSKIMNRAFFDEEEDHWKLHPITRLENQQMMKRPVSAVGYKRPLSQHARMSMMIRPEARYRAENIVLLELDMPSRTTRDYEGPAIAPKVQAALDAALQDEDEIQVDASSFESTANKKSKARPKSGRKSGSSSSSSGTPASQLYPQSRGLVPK
# Some of the results follow.
# Assays:
# Test in all cases: log2 fold change, soluble protein after heating vs DMSO (PISA); higher = thermal stabilisation; K562 lysate, 10 uM; active = over 0.2 and 3.5 SD of the protein, either way, in both replicates (recomputed)
# vemurafenib = compound: CCCS(=O)(=O)Nc1ccc(F)c(C(=O)c2c[nH]c3ncc(-c4ccc(Cl)cc4)cc23)c1F [vemurafenib]
# Outline: (§1)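 Soluble protein was defined as the supernatant remaining after 21,000xg for 90 min, following pooling of heated aliquots and adjustment to 0.5% NP-40 at 4°C. Before that, crude K562 extract at 1 mg/mL protein in PBS pH 7.4 with 1 mM MgCl2 was treated with 10 μM compound for 30 min and heated for 3 min across 48°C-58°C. Quantification used TMTpro 16plex LC-MS/MS with channel sums equalised, and values are log-two fold changes in thermal stability relative to solvent controls from duplicates.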
# [1] = compound: CCCS(=O)(=O)Nc1ccc(F)c(C(=O)c2c[nH]c3ncc(Cl)cc23)c1F
# Outline: as §1
# barasertib = compound: CCN(CCCOc1ccc2c(Nc3cc(CC(=O)Nc4cccc(F)c4)[nH]n3)ncnc2c1)CCOP(=O)(O)O [barasertib]
# Outline: as §1
# [2] = compound: CC[C@@H]1C(=O)N(C)c2cnc(Nc3ccc(C(=O)NC4CCN(C)CC4)cc3OC)nc2N1C1CCCC1
# Outline: as §1
# volasertib = compound: CC[C@@H]1C(=O)N(C)c2cnc(Nc3ccc(C(=O)N[C@H]4CC[C@H](N5CCN(CC6CC6)CC5)CC4)cc3OC)nc2N1C(C)C [volasertib]
# Outline: as §1
# [3] = compound: CCn1c(C(=O)N(C2CC2)C2CC2)cc2c3c(ncn3C)c(Nc3cc(C)n(C)n3)nc21
# Outline: as §1
# [4] = compound: CCn1cc(-c2ccnc3[nH]c(-c4cccc(CN(C)C)c4)cc23)c(-c2ccc(NC(=O)N(C)C)cc2)n1
# Outline: as §1
# [5] = compound: CN1CCC(CNc2ccc3ncc(-c4cccc(OC(F)(F)F)c4)n3n2)CC1
# Outline: as §1
# saracatinib = compound: CN1CCN(CCOc2cc(OC3CCOCC3)c3c(Nc4c(Cl)ccc5c4OCO5)ncnc3c2)CC1 [saracatinib]
# Outline: as §1
# sotrastaurin = compound: CN1CCN(c2nc(C3=C(c4c[nH]c5ccccc45)C(=O)NC3=O)c3ccccc3n2)CC1 [sotrastaurin]
# Outline: as §1
# alvocidib = compound: CN1CC[C@H](c2c(O)cc(O)c3c(=O)cc(-c4ccccc4Cl)oc23)[C@H](O)C1 [alvocidib]
# Outline: as §1
# Tubastatin A = compound: CN1CCc2c(c3ccccc3n2Cc2ccc(C(=O)NO)cc2)C1 [Tubastatin A]
# Outline: as §1
# [6] = compound: CNC(=O)C1=CC=CC=C1NC2=NC(=NC=C2Cl)NC3=C(C=C(C=C3)N4CCOCC4)OC
# Outline: as §1
# defactinib = compound: CNC(=O)c1ccc(Nc2ncc(C(F)(F)F)c(NCc3nccnc3N(C)S(C)(=O)=O)n2)cc1 [defactinib]
# Outline: as §1
# [7] = compound: CNc1nc(-c2ccc3c(N)n[nH]c3c2)cc(N2C[C@@H](C(=O)NC3CCCCC3)CC[C@H]2C)n1
# Outline: as §1
# encorafenib = compound: COC(=O)N[C@@H](C)CNc1nccc(-c2cn(C(C)C)nc2-c2cc(Cl)cc(NS(C)(=O)=O)c2F)n1 [encorafenib]
# Outline: as §1
# [8] = compound: COC(=O)[C@H](CCSC)NC(=O)C1=C(C=C(C=C1)NC[C@H](CS)N)C2=CC=CC=C2
# Outline: as §1
# alisertib = compound: COc1cc(Nc2ncc3c(n2)-c2ccc(Cl)cc2C(c2c(F)cccc2OC)=NC3)ccc1C(=O)O [alisertib]
# Outline: as §1
# [9] = compound: COc1cc2nc(-c3cc(F)ccc3O)nc(N[C@@H]3CNC[C@H]3C(C)(C)O)c2cc1OC
# Outline: as §1
# gefitinib = compound: COc1cc2ncnc(Nc3ccc(F)c(Cl)c3)c2cc1OCCCN1CCOCC1 [gefitinib]
# Outline: as §1
Target,log2 fold change (vemurafenib),log2 fold change [1],log2 fold change (barasertib),log2 fold change [2],log2 fold change (volasertib),log2 fold change [3],log2 fold change [4],log2 fold change [5],log2 fold change (saracatinib),log2 fold change (sotrastaurin),log2 fold change (alvocidib),log2 fold change (Tubastatin A),log2 fold change [6],log2 fold change (defactinib),log2 fold change [7],log2 fold change (encorafenib),log2 fold change [8],log2 fold change (alisertib),log2 fold change [9],log2 fold change (gefitinib)
KHDC4 (UniProt Q7Z7F0),inactive: 0.026,inactive: 0.051,inactive: -0.019,inactive: 0.064,inactive: 0.022,inactive: -0.02,inactive: 0.055,inactive: 0.053,inactive: 0.043,inactive: -0.083,inactive: -0.027,inactive: 0.069,inactive: 0.005,inactive: 0.007,inactive: -0.025,inactive: -0.011,inactive: -0.034,inactive: -0.002,inactive: 0.033,inactive: -0.015
KDM5B isoform 2 (UniProt Q9UGL1),inactive: 0.043,inactive: 0.073,inactive: 0.039,inactive: 0.138,inactive: 0.071,inactive: -0.059,inactive: -0.107,inactive: -0.034,inactive: -0.113,inactive: -0.136,inactive: -0.048,inactive: 0.021,inactive: -0.007,inactive: 0.08,inactive: 0.307,inactive: -0.094,inactive: 0.075,–,inactive: 0.014,–
L1RE1 (UniProt Q9UN81),inactive: 0.031,inactive: -0.08,inactive: 0.011,inactive: 0.06,inactive: 0.033,inactive: -0.147,inactive: -0.012,inactive: -0.006,inactive: -0.021,inactive: -0.035,inactive: -0.028,inactive: 0.053,inactive: -0.015,inactive: 0.043,inactive: 0.007,inactive: 0.02,inactive: -0.03,inactive: 0.021,inactive: 0.007,inactive: 0.011
KPNA4 (UniProt O00629),inactive: -0.003,inactive: 0.017,inactive: -0.089,inactive: 0.048,inactive: 0.026,inactive: -0.022,active: -0.318,inactive: 0.103,inactive: -0.032,inactive: 0.03,inactive: -0.098,inactive: 0.007,inactive: 0.014,inactive: -0.002,inactive: 0.008,inactive: 0.02,inactive: -0.059,inactive: -0.007,inactive: 0.002,inactive: 0.013
KIF21B (UniProt O75037),inactive: 0.161,inactive: 0.072,inactive: -0.134,inactive: -0.023,inactive: 0.016,inactive: -0.084,inactive: -0.037,inactive: -0.005,inactive: -0.047,inactive: -0.019,inactive: -0.065,inactive: 0.115,–,inactive: -0.119,inactive: 0.205,inactive: -0.047,inactive: 0.084,inactive: -0.224,inactive: 0.155,inactive: 0.201
KIDINS220 isoform 4 (UniProt Q9ULH0),inactive: 0.016,inactive: -0.03,inactive: 0,inactive: 0.035,inactive: -0.052,inactive: 0.046,inactive: -0.037,inactive: -0.057,inactive: 0.026,inactive: 0.018,inactive: -0.004,inactive: -0.03,inactive: 0.01,inactive: 0.001,inactive: -0.017,inactive: 0.043,inactive: -0.002,inactive: 0.013,inactive: 0.011,inactive: 0.013
KLC2 (UniProt Q9H0B6),inactive: 0.066,inactive: 0.042,inactive: 0.042,inactive: -0.043,inactive: -0.074,inactive: -0.009,inactive: -0.015,inactive: -0.069,inactive: 0.008,inactive: -0.016,inactive: -0.034,inactive: -0.072,inactive: 0.004,inactive: -0.048,inactive: -0.006,inactive: 0.01,inactive: 0.043,inactive: -0.038,inactive: 0.001,inactive: -0.098
KYNU (UniProt Q16719),inactive: 0.025,inactive: 0.037,inactive: -0.014,inactive: 0.014,inactive: 0.003,inactive: -0.105,inactive: 0.016,inactive: 0.038,inactive: 0.136,inactive: -0.009,inactive: -0.051,inactive: 0.078,inactive: 0.021,inactive: 0.012,inactive: -0.01,inactive: 0.007,inactive: -0.029,inactive: -0.049,inactive: 0.001,inactive: 0.027
L3HYPDH (UniProt Q96EM0),inactive: 0.04,inactive: 0.033,inactive: 0.015,inactive: 0.002,inactive: -0.017,inactive: 0.011,inactive: 0.01,inactive: 0.012,inactive: -0.027,inactive: -0.008,inactive: 0.023,inactive: -0.052,inactive: 0.005,inactive: -0.012,inactive: 0.022,inactive: -0.017,inactive: 0.039,inactive: -0.019,inactive: -0.005,inactive: -0.013
KIAA1522 isoform 2 (UniProt Q9P206),inactive: -0.002,inactive: -0.028,inactive: 0.008,inactive: -0.001,inactive: 0.008,inactive: 0.039,inactive: 0.024,inactive: 0.007,inactive: 0.03,inactive: -0.023,inactive: 0,inactive: -0.087,inactive: -0.006,inactive: 0.046,inactive: 0.015,inactive: 0.146,inactive: -0.041,inactive: -0.008,inactive: -0.015,inactive: 0.033
KIF4A (UniProt O95239),inactive: 0.005,inactive: 0.035,inactive: -0.02,inactive: -0.021,inactive: -0.055,inactive: 0.003,inactive: 0.013,inactive: -0.07,inactive: 0.007,inactive: -0.003,inactive: 0.006,inactive: -0.145,inactive: 0.022,inactive: 0.006,inactive: 0.005,inactive: -0.014,inactive: 0.154,inactive: -0.041,inactive: -0.035,inactive: -0.018
KTI12 (UniProt Q96EK9),inactive: 0.109,inactive: 0.017,inactive: -0.003,inactive: 0.059,inactive: -0.091,inactive: -0.022,inactive: -0.02,inactive: -0.017,inactive: -0.056,inactive: 0.039,inactive: -0.052,inactive: -0.072,inactive: 0.018,inactive: -0.017,inactive: 0.041,inactive: -0.027,inactive: -0.024,inactive: -0.018,inactive: 0,inactive: 0.01
KHDRBS1 (UniProt Q07666),inactive: -0.025,inactive: 0.004,inactive: 0.034,inactive: -0.024,inactive: -0.024,inactive: -0.002,inactive: 0.083,inactive: -0.048,inactive: -0.004,inactive: -0.008,inactive: 0.039,inactive: -0.045,inactive: 0.017,inactive: -0.006,inactive: 0.007,inactive: 0.019,inactive: -0.139,inactive: -0.025,inactive: 0.011,inactive: -0.01
KRBA1 (UniProt A5PL33),inactive: 0.104,inactive: -0.006,inactive: 0.097,inactive: 0.119,inactive: -0.087,inactive: -0.01,inactive: 0.216,inactive: -0.083,inactive: -0.064,inactive: -0.162,inactive: -0.074,inactive: -0.263,inactive: -0.104,inactive: 0.055,inactive: 0.005,inactive: 0.163,inactive: 0.035,–,inactive: 0.062,–
KIF3B (UniProt O15066),inactive: -0.118,inactive: 0.028,inactive: -0.086,inactive: -0.069,inactive: 0,inactive: -0.166,inactive: -0.225,inactive: 0.067,–,inactive: -0.01,inactive: -0.286,inactive: -0.165,inactive: 0.023,inactive: 0.037,–,inactive: 0.005,inactive: 0.227,inactive: 0.017,inactive: -0.069,inactive: -0.004
LAMP2 (UniProt P13473),inactive: -0.03,inactive: 0.002,inactive: -0.013,inactive: 0.044,inactive: 0.049,inactive: 0.006,inactive: 0.055,inactive: 0.047,inactive: -0.027,inactive: 0.026,inactive: -0.046,inactive: 0.041,inactive: 0.026,inactive: 0.04,inactive: -0.027,inactive: 0.036,inactive: -0.029,inactive: 0.012,inactive: -0.017,inactive: -0.001

# Only log2 fold change (sotrastaurin), log2 fold change (alvocidib) and log2 fold change [2] (two entries from above):
Target,log2 fold change (sotrastaurin),log2 fold change (alvocidib),log2 fold change [2]
KIF3B (UniProt O15066),inactive: -0.01,inactive: -0.286,inactive: -0.069
LAMP2 (UniProt P13473),inactive: 0.026,inactive: -0.046,inactive: 0.044
